Literature values as cited in US20190307740A1, “COMPOSITIONS AND METHODS FOR TREATMENT RELATED TO FALL AND FALL FREQUENCY IN NEURODEGENERATIVE DISEASES” (Neurocea, LLC, priority 2016, published 2019).
For at least one compound, name, drawing or mass did not settle the structure.

Tested on: nAChR
Settings: cited from earlier work

| Structure (SMILES) | nAChR subtype |
| --- | --- |
| Cc1ncccc1OC[C@@H]1CCCN1 [ABT-089] | β2 |
| c1cc2cc(-c3ccc(O[C@H]4CN5CCC4CC5)nn3)ccc2[nH]1 [ABT-107] | α7 |
| Clc1cc(N2C[C@@H]3CN[C@@H]3C2)cnc1Cl [ABT-894] | β2 |
| Cc1ccc(-c2ccc(OC3CN4CCC3CC4)cn2)cc1 (stereo not shown) [AQW051] | α7 |
